# Primary screen of a compound library

Source: ChEMBL document CHEMBL3988442, “University of Dundee, Small-Polar-MMV Screening Library” (2021).

A: 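Whole-cell assay for inhibitors of Mycobacterium tuberculosis growth, labelled Cornell in the record; the read-out is not stated. The concentration is filed as 10 mM, unlikely as a test dose, so the dose is not known. The record gives no direction; compounds strong in two other growth screens of this library score well above the rest, so higher reads as stronger inhibition. About 53,000 compounds were tested under these conditions; 1.7% (about 900) showed 50% or more at least once.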
B: 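Assay on Mycobacterium tuberculosis, filed only as a heat shock assay from Cornell; the read-out is not stated. The concentration is filed as 10 mM, unlikely as a test dose, so the dose is not known. The record gives no direction; compounds that gave an IC50 in retests scored well above the rest, so higher reads as stronger inhibition. About 69,000 compounds were tested under these conditions; 1.4% (about 930) showed 50% or more at least once.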

The filed quantity is “Percent Effect” (%). The record does not define 0% and 100%; most values in the screen are far below 50% and negative numbers occur (in some assays of this library far below -100). The compounds are a random part of those screened. A dash means the value is not listed here; it may have been measured.

| Compound | A | B |
|---|---|---|
| `CC(C)Oc1cc(N2CC[C@@H](N3CCOCC3)[C@H](O)C2)nc(N)n1` | -13.61 | 2.37 |
| `COCc1noc(-c2ccc(N(C)Cc3ccc(C)o3)nc2)n1` | 15.33 | 20.62 |
| `c1ccc2c(NCC3(N4CCOCC4)CCSC3)ncnc2c1` (stereo not given) | 3.482 | -9.5 |
| `O=C(c1ccc(F)cc1F)N1C[C@@H](O)[C@H](N2CCOCC2)C1` | - | -3.132 |
| `O=C(O)C(F)(F)F.[H][C@@]12CCN(CC3CCOCC3)[C@@]1([H])CCN2C(=O)c1cccn1C` | 15.65 | -25.56 |
| `CCN1CCN(C2CCN(Cc3ccc(Cl)s3)CC2)C1=O` | -3.999 | -11.69 |
| `CN(C(=O)COc1ccc(F)cc1)[C@@H]1CS(=O)(=O)C[C@H]1O` | -1.802 | 2.462 |
| `CC(NC(=O)C1=NN(C)C(=O)CC1)c1ccccc1Cl` (stereo not given) | 33.56 | -2.544 |
| `[H][C@@]12CS(=O)(=O)C[C@]1([H])N(Cc1nccn1C)CCN2CC1CC1` | - | -16.55 |
| `[H][C@@]12C[C@@H](c3noc(C)n3)O[C@]1([H])CN(Cc1ccc3c(c1)OCO3)C2` | -6.274 | 3.537 |
| `O=C(O)C(F)(F)F.[H][C@@]12COC[C@@H](CC(=O)NCCOC)[C@]1([H])CN(CC1CCOCC1)C2` | -2.505 | -14.59 |
| `CC(C)O[C@H]1CN(C(=O)CCN2CCCCO2)C[C@@H]1O` | -13.07 | -15.44 |
| `COc1ccc(C(C(=O)O)N(C)Cc2c(C)nn(C)c2C)c(C)c1` (stereo not given) | -70.28 | 1.795 |
| `O=C(O)C(F)(F)F.[H][C@@]12C[C@H](C(=O)N3CCCO3)CN(Cc3ccco3)[C@]1([H])CCO2` | 11.72 | -45.27 |
| `O=C(O)C(F)(F)F.[H][C@]12CCN(Cc3ccc(C)s3)CC[C@]1([H])N(S(C)(=O)=O)CCO2` | 11.47 | 16.37 |
| `Cc1cc(C(F)(F)F)c2c(C3CCCN(C(=O)C4CC4)C3)noc2n1` (stereo not given) | 4.519 | -9.565 |
| `CCCn1c(C)c(CC(=O)NC(C)(C)CO)c2c1CC(C)(C)CC2=O` | 29.81 | 3.346 |
| `COCCOc1ccnc(-c2noc([C@@H]3CCCN3C(C)C)n2)c1` | 10.31 | -9.678 |
| `COc1cccc(C(=O)NS(=O)(=O)c2cc(Cl)sc2Cl)c1OC(F)F` | 16.97 | -11.47 |
| `Cc1nn(-c2ncnc3[nH]cnc23)c2c1C(C(C)C)CC(=O)N2` (stereo not given) | 46.09 | 13.47 |
| `Cc1nnc2sc(-c3cc(C(C)C)n[nH]3)nn12` | -10.96 | 6.403 |
| `CC(C(=O)NCCOc1ccc2c(c1)OCO2)n1cncn1` (stereo not given) | 12.03 | 17.11 |
| `c1cnc(N2CCC(OCCN3CCCCC3)C2)nc1` (stereo not given) | -3.007 | 2.687 |
| `N#Cc1cccc(N2CCC3(CCC(=O)N(CC(N)=O)C3)CC2)n1` | -2.284 | -7.173 |
| `Cc1ccn(C)c(=O)c1NC(=O)N(C)Cc1cccc(OC(C)C)c1` | 0.2464 | -11.02 |
| `CCN1CCN(C(=O)CCC2CCN(C(=O)CCSC)CC2)CC1` | -7.444 | -14.32 |
| `COCC(=O)N1CCn2c(Cn3cncn3)cnc2C1C` (stereo not given) | -5.412 | 8.953 |
| `NS(=O)(=O)CCNC(=O)c1cc(Br)c2c(c1)OCCO2` | 25.97 | -0.08156 |
| `Cn1cc(C(=O)NCc2ccc(OC3CCCCC3)nc2)ccc1=O` | 7.085 | -5.957 |
| `CC(C)OC[C@H]1CCC[C@]12CN(S(=O)(=O)C1CC1)CCO2` | 29.82 | 3.245 |
| `c1cc2c(cc1CSCc1noc(C3CC3)n1)OCCO2` | 13.09 | 14.98 |
| `Cn1ccnc1C(O)c1ccccc1N1CCN(CC2CCCC2)CC1` (stereo not given) | 15.07 | -11.19 |
| `COc1ccc2c(c1)CCCC2CC(=O)O` (stereo not given) | - | -99.15 |
| `Cc1cc(NCc2ccc(CS(N)(=O)=O)cc2)nc(C)n1` | - | -10.55 |
| `COc1ccccc1OCc1cc(C(=O)N2CC=CC2C(C)C)n[nH]1` (stereo not given) | 17.38 | 16.66 |
| `CCc1nc(C)c(C(=O)N(C)Cc2cnc3ccccn23)o1` | 15.55 | 3.524 |
| `Cc1nc(O)cc([C@@H]2CN(C(=O)C3CC3)C[C@H]2c2ccccc2F)n1` | 45.97 | 4.921 |
| `CC(=O)c1ccc(OCC(C)O)cc1O` (stereo not given) | -15.44 | -16.93 |
| `Fc1ccccc1Cc1noc(CN2CCCC(CN3CCCC3)C2)n1` (stereo not given) | 28.92 | 2.765 |
| `COC(=O)c1ccc(Cn2cccc(C(F)(F)F)c2=O)s1` | - | -13.26 |

3 of the entries, repeated:

{"compound": "CC(C)OC[C@H]1CCC[C@]12CN(S(=O)(=O)C1CC1)CCO2", "A": 29.82, "B": 3.245}
{"compound": "O=C(O)C(F)(F)F.[H][C@]12CCN(Cc3ccc(C)s3)CC[C@]1([H])N(S(C)(=O)=O)CCO2", "A": 11.47, "B": 16.37}
{"compound": "CCN1CCN(C2CCN(Cc3ccc(Cl)s3)CC2)C1=O", "A": -3.999, "B": -11.69}